In paper PMC4564764, “Collagen Q and anti-MuSK autoantibody competitively suppress agrin/LRP4/MuSK signaling” (Scientific Reports, 2015) one finds binding data, which are given here for two substances.

The chains behind the UniProt entries cited, without tags or fusion partners. Residues count along the entry.
UniProt Q9Y215, residues 23-455: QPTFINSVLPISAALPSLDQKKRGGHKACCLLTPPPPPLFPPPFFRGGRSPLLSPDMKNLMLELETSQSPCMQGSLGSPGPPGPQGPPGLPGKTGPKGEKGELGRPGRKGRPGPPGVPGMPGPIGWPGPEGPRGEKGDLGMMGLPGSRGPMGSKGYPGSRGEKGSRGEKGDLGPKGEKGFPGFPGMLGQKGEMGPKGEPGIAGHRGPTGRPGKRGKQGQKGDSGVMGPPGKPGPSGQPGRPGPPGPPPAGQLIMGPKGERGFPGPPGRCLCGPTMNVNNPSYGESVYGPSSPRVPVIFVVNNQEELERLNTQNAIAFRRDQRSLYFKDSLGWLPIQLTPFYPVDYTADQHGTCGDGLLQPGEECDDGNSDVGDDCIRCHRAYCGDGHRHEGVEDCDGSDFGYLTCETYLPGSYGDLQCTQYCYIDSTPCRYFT

The target in test [1] is T1, purified recombinant ectodomain of human MuSK fused to myc (hMuSKect-myc), wild type (human) (UniProt O15146).
T1 sequence: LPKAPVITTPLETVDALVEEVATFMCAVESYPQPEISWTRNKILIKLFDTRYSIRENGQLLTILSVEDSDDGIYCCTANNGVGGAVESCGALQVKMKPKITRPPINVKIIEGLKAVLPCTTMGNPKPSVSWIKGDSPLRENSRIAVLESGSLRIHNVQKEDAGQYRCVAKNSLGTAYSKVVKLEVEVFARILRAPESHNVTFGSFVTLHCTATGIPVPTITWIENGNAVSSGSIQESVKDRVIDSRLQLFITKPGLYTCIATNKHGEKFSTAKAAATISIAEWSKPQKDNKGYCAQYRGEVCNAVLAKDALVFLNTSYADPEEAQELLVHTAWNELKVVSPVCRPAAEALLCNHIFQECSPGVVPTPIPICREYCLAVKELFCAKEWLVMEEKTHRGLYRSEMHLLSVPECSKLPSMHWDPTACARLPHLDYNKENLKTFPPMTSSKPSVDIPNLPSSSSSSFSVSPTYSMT
In words: ELISA; in vitro plate-binding assay, competition: hMuSKect-myc coated; 0.12 Ellman units of AChE/ColQ or AChE/ColQ_ΔCTD complex overlaid at 4 °C for 3 h, wells washed; then hLRP4N-FLAG with agrin; anti-FLAG-HRP, normalised to no AChE/ColQ complex; both purified. Background: ELISA stands for enzyme-linked immunosorbent assay.

Test [2] concerns the target T1, purified recombinant ectodomain of human MuSK fused to myc (hMuSKect-myc), wild type (human). Put plainly: co-IP; HEK293 cotransfected with wild-type or domain-deleted phMUSKect-myc and pFLAG-COLQ; lysis in 50 mM HEPES pH 7.0, 150 mM NaCl, 0.5% NP-40; IP with anti-myc (9E10) and Dynabeads Protein G; blot with anti-FLAG-HRP.

These are yes or no findings as the source states them, for the method shown. For some assays here: Binding seen in cells or lysates may run through a third protein. Some binding calls cover weakened binding; strength is not graded here. Sequences can lack the tags named with a protein.

“purified recombinant human AChE/ColQ complex (wild type) (from UniProt Q9Y215 23-455; P22303 32-614)”: the binding entry in test [1] is “binds”.
In the case of “FLAG-ColQ (human collagen Q with FLAG inserted between codons 35 and 36) (from UniProt Q9Y215 23-455)”, the binding result in test [2] is “binds”.
